Here are results for one substance from article PMC5614653.

The chains behind the UniProt entries cited, without tags or fusion partners.
UniProt Q9UKV8: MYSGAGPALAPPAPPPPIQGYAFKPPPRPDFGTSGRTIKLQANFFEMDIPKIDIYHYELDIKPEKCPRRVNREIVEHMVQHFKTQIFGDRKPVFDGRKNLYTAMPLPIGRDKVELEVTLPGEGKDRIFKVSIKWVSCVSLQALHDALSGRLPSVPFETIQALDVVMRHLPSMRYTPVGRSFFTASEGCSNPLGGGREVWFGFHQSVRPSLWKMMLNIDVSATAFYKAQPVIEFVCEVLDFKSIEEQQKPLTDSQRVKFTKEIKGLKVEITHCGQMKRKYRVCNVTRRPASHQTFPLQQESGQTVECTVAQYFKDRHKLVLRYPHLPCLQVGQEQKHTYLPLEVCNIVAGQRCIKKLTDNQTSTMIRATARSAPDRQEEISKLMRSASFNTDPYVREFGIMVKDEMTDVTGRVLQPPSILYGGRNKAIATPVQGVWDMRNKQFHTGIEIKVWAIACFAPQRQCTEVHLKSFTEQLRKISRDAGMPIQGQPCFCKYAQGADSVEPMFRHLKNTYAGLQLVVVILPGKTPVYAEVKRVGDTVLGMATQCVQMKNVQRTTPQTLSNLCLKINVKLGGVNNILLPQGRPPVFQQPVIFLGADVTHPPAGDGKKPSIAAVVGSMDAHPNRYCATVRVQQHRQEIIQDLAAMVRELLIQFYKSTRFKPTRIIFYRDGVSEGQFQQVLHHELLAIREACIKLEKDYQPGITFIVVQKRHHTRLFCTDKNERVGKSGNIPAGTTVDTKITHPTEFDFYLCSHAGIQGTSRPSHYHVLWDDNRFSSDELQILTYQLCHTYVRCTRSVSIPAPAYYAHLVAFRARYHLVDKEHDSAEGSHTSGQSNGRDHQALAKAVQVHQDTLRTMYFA
UniProt Q8NDV7: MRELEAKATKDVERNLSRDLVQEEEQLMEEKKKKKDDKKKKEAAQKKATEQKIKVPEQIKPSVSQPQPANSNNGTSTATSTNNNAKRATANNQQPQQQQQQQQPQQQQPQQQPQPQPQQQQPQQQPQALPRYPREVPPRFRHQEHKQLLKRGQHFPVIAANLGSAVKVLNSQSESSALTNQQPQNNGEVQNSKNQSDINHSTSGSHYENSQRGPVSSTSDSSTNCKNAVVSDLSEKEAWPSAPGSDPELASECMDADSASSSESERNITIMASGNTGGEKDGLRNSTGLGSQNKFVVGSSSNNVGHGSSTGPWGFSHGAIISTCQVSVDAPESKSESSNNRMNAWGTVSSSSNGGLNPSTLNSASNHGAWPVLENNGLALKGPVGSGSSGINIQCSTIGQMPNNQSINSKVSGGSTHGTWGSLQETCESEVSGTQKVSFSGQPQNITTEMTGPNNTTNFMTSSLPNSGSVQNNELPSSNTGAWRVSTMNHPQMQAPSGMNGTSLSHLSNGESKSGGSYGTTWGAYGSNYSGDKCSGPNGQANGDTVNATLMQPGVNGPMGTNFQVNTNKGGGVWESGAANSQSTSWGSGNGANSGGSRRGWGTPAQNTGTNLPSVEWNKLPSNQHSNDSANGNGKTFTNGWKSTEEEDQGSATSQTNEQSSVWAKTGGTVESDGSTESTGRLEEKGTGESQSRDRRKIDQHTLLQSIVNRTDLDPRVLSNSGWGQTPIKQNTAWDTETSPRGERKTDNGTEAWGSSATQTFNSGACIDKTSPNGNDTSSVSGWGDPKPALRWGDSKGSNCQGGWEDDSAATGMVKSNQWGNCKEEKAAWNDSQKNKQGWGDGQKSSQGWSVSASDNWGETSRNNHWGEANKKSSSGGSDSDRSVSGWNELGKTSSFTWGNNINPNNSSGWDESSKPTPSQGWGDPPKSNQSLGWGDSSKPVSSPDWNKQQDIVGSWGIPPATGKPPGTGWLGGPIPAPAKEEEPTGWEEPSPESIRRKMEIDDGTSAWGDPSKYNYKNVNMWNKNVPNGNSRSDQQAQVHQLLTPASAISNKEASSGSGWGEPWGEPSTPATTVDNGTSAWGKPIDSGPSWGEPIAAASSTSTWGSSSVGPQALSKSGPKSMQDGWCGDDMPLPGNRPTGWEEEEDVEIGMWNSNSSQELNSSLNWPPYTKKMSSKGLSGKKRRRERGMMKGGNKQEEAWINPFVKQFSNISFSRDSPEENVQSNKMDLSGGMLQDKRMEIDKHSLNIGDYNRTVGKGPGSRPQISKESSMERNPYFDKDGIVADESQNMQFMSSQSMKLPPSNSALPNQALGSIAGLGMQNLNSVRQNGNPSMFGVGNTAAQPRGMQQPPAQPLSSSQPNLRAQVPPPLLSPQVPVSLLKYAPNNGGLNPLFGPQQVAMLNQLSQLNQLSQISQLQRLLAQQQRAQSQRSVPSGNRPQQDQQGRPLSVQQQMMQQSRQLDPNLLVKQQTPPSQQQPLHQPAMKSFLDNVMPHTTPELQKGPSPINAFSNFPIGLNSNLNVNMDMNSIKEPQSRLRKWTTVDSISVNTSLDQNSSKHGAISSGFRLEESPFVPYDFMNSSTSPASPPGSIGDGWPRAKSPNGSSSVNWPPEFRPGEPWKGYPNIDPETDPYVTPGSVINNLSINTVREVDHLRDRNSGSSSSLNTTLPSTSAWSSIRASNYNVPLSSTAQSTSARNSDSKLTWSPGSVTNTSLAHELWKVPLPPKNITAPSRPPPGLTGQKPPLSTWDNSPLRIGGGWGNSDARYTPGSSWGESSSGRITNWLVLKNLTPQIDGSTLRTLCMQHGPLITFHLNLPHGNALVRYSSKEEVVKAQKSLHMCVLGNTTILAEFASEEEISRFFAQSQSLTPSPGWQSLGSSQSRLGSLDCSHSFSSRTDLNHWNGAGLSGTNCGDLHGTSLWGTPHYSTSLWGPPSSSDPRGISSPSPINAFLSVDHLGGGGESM

For this test, the target named is Ago2 (human (endogenous in THP-1)) (UniProt Q9UKV8). Kind of test: co-IP; lysate of exosomes (60 ug total exosomal protein; 0.5% NP40, 150 mM KCl, 25 mM Tris, 2 mM EDTA) from supernatants of EV71-infected THP-1 cells (0.1 TCID50); AGO2 antibody and GW182 antibody, 4°C overnight, Protein A/G agarose; rabbit IgG as control; Western blot. For orientation: Immunoblotting shows a protein as a band on a membrane.

No constants are given. Whether binding was seen depends on the method and setting. In cells and extracts the contact can be indirect. Some entries that bind do so weakly or less than the wild type.

GW182 (from UniProt Q8NDV7 1-1962): the binding entry is “binds”.
